Reference: PubChem BioAssay AID720533 (National Center for Advancing Translational Sciences (NCATS), 2013)
“And” between values parts separate entries of the source, which are not always exact repeats. Equal values may be shown once. Among all 18,000 compounds or so, about 750 (4.2%) were called active. Inconclusive results, whose numbers are uncertain, are shown with a selection of clear calls. Calls follow the shape of the full dose curve; tested in HEK293 cells. Where the call is inconclusive, the potency comes from a doubtful curve fit.

assay: qHTS for Inhibitors of binding or entry into cells for Lassa Virus; settings: Lassa virus pseudotyped entry inhibition, cell-based qHTS; activity change, negative = inhibition: at 49.2 µM (top of the series) unless noted
% is scaled to controls: 0 for no effect and ±100 for the full control effect; potency is read from the fitted curve at half-maximal effect.

Structure (SMILES) | Potency | activity change, negative = inhibition
COC(=O)c1c(OCc2cccnc2)cc(=O)n2c1CCN(Cc1cc3c(cc1Cl)OCO3)CC2 | inactive | 
O=C(NC(CC1=CCCCC1)c1ccc2c(c1)OCO2)C(F)(F)F (centres undefined) |  | inactive: 26.8% [at 8.59 µM]
COc1ccc(CNc2nc(-c3ccc(C(=O)N(C)C)cc3)nc3ccccc23)c(OC)c1 | inconclusive: 20 µM [inhibitor, partial curve] | 
Cc1cc2oc(=O)cc(-c3ccccc3)c2c(C)c1-c1ccc(O)cc1 | inconclusive: 12.6 µM [inhibitor, partial curve] | 
Cc1cc2c(c(=O)o1)[C@H]1O[C@](c3ccsc3)(Cc3ccccc31)O2 |  | inactive: 1.38% [at 8.59 µM]
CC(=O)OC1CC2C(C)(C)C(O)CC(O)[C@@]2(C)C2CC[C@@]3(C)C(=CC(=O)OC3c3ccoc3)[C@]12C (some centres undefined) | inactive | 
COc1cccc(-c2nc3cc4c(cc3cc2CN(C(=O)c2csc(C)n2)C2CC2)CCC4)c1OC | inconclusive: 35.5 µM [inhibitor, single point] | 
COc1cc(OC)cc(-c2sc3ccccc3c(=O)c2I)c1 | inconclusive: 39.8 µM [inhibitor, single point] | 
CCC1(C2CCN(Cc3cccc4ccccc34)CC2)NC(=O)N(Cc2ccc3c(c2)OCO3)C1=O (centres undefined) | inactive | 
COc1ccc2ncn(-c3cc(OC(C)c4ccccc4Cl)c(C(N)=O)s3)c2c1 (centres undefined) | inconclusive: 0.0996 µM [inhibitor, full curve, poor fit] | 
CC(=O)C1=C(O)C=C2Oc3c(C(C)=O)c(O)c(C)c(O)c3[C@]2(C)C1=O | inconclusive: 15.8 µM [inhibitor, single point] | 
COc1cccc(-c2nc3cc(SC)ccc3cc2CN(C(=O)c2csc(C)n2)C2CC2)c1 | inconclusive: 35.5 µM [inhibitor, single point] | 
COC(=O)Nc1nc2ccc(C(=O)c3cccs3)cc2[nH]1 | inconclusive: 28.2 µM [inhibitor, partial curve] and inconclusive: 178 nM [inhibitor, full curve, poor fit] | 
CN(C)CCN1C(=O)c2ccccc2N(C)c2ccccc21 | inactive and inconclusive: 35.5 µM [inhibitor, single point] | 
CCCC(=O)OC[C@@H](OC(=O)CCC)[C@@H](OC(=O)CCC)[C@H](Cn1c2nc(=O)[nH]c(=O)c-2nc2cc(C)c(C)cc21)OC(=O)CCC | inconclusive: 28.2 µM [inhibitor, partial curve] | 
COC(=O)C1CCN(Cc2ccc3c(c2)CN(C(=O)c2cc(-c4ccc(C)o4)[nH]n2)CCO3)CC1 | inconclusive: 112 µM [inhibitor, partial curve] | 
CNC[C@H](O)c1ccc(O)c(O)c1 | inconclusive: 20 µM [inhibitor, partial curve] | 
c1ccc2c(c1)OC[C@@H](C1=NCCN1)O2 | inconclusive: 31.6 µM [inhibitor, partial curve] | 
CCCCCCN1C[C@H](n2cc(C3CC3)nn2)[C@@H](O)C[C@H]1c1ccc(Cl)cc1 | inconclusive: 15.8 µM [inhibitor, partial curve, poor fit] | 
C=CC(=O)Nc1cc2c(Nc3ccc(F)c(Cl)c3)ncnc2cc1OCCCN1CCOCC1 | inconclusive: 35.5 µM [inhibitor, single point] | 

Structure (SMILES) | Potency | activity change, negative = inhibition
C=CCN1CCc2cccc3c2C1Cc1ccc(O)c(O)c1-3 (centres undefined) | inconclusive: 35.5 µM [inhibitor, partial curve] | 
COC(=O)[C@H](C=C[C@H](C)Cc1cc(Br)cc(OCc2ccccc2)c1OC)OCc1ccccc1 |  | inactive: 5.12% [at 8.59 µM]
Cc1cnc(SCc2ccccn2)nc1C1CCCN(C(=O)c2ccc3[nH]c(C)c(C)c3c2)C1 (centres undefined) | inconclusive: 20 µM [inhibitor, partial curve, poor fit] | 
CCCCCC(=O)N1C[C@H](n2cc(-c3ccc(F)cc3)nn2)[C@@H](O)C[C@H]1c1ccc(C)cc1 | inactive | 
NC(N)=NC(N)=NCCc1ccccc1 | inconclusive: 28.2 µM [inhibitor, partial curve] | 
O=C(c1cccc(N2CCCC2=O)c1)N1CCC(Oc2cccc(CN3CCN(c4ccccn4)CC3)c2)CC1 | inconclusive: 35.5 µM [inhibitor, single point] | 
CN1CCN(C2Cc3ccccc3Sc3ccc(S)cc32)CC1 (centres undefined) | inconclusive: 31.6 µM [inhibitor, single point] | 
CCCCC1=CC2=C(OC(C)=O)C(=O)C(C)(OC(=O)c3ccco3)C(=O)C2=CO1 (centres undefined) | inactive | 
CC1(C)CCCC2(C)C3C(O)CC2(C)C(O)C31 (centres undefined) | inactive | 
CNc1ncnc2c1ncn2[C@@H]1O[C@H](COP(=O)(O)O)[C@@H](O)[C@H]1O | inconclusive: 28.2 µM [inhibitor, partial curve] | 
C[C@@H]1CC[C@H]2C(=O)N(Cc3ccccc3)C[C@H](O)CN2[C@@H]1c1ccc(Br)cc1 |  | inactive: -0.639% [at 8.59 µM]
COc1ccccc1C(=O)N[C@@H]1c2ccccc2C2(CCN(Cc3c(O)cccc3OC)CC2)[C@H]1O | inconclusive: 35.5 µM [inhibitor, single point] | 
Cc1ncc(Cc2ccccc2)c(C2CCN(S(=O)(=O)C[C@]34CC[C@H](CC3=O)C4(C)C)CC2)n1 | inconclusive: 6.31 µM [inhibitor, partial curve] | 
COc1cc(-c2cc(C)c3c(OC)ccc(OC)c3n2)cc2c1OCCN(C(=O)C(C)c1n[nH]c(=O)c3ccccc13)C2 (centres undefined) | inactive | 
COc1ccc2c(c1)c(CC(=O)O)c(C)n2C(=O)c1ccc(Cl)cc1 | inconclusive: 35.5 µM [inhibitor, single point] | 
CC(C)C[C@H]1COc2cc(Br)ccc2S(=O)(=O)N1Cc1ccc(F)cc1F | inactive | 
COc1cc2c(c(OC)c1OC)-c1c(cc3c(c1OC)OCO3)CC(C)C(C)(O)C2OC(=O)c1ccccc1 (centres undefined) | inactive | 

In another format: two of the compounds above

| Structure (SMILES) | Potency | activity change, negative = inhibition |
| --- | --- | --- |
| Cc1cc2oc(=O)cc(-c3ccccc3)c2c(C)c1-c1ccc(O)cc1 | inconclusive: 12.6 µM [inhibitor, partial curve] |  |
| CC(=O)OC1CC2C(C)(C)C(O)CC(O)[C@@]2(C)C2CC[C@@]3(C)C(=CC(=O)OC3c3ccoc3)[C@]12C (some centres undefined) | inactive |  |
